The values that follow come from PMC11187069.

The chains behind the UniProt entries cited, without tags or fusion partners.
UniProt O15105: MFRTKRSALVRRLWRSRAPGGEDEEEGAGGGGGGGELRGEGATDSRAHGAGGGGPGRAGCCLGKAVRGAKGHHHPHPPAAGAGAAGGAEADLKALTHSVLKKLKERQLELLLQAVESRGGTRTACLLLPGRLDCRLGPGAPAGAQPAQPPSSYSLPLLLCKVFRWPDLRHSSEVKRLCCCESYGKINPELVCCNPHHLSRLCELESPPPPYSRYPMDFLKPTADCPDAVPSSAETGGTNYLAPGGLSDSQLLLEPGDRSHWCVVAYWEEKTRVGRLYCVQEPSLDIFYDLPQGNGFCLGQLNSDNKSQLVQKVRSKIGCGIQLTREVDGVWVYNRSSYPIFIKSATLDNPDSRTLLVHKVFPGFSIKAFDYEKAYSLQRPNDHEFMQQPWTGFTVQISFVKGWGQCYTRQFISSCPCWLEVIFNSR

These are yes or no findings as the source states them, for the method shown. In cells and extracts the contact can be indirect. Some results given as binding are weak or reduced against the parent protein; the word gives no strength.

This experiment addresses T1, TGFBR1 in the Smad7 Co-IP (UniProt P36897).
T1 sequence: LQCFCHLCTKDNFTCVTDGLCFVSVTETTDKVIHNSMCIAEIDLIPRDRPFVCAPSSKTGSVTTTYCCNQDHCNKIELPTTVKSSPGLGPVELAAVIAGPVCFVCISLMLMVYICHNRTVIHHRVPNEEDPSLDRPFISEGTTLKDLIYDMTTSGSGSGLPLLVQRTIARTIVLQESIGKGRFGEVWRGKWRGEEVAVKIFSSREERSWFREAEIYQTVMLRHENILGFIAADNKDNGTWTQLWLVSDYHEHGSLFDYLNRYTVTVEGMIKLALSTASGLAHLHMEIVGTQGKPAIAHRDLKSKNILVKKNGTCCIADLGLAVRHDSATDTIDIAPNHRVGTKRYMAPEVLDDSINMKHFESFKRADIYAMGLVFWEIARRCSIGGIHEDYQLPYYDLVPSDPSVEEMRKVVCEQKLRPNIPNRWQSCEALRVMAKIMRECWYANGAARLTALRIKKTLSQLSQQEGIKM
As to the kind of experiment: co-IP; HEK293T cells and fibroblasts, with miR-17-5p overexpression or inhibition; lysates incubated with indicated antibodies and Protein A/G agarose at 4 °C overnight; immunoblot. A general note: Immunoblotting shows a protein as a band on a membrane.

As for Smad7 (from UniProt O15105 1-426), the binding result was “binds”.
